This is one part of the list.
What was measured:
Assay in all cases: log2 fold change, soluble protein after heating vs DMSO (PISA); higher = thermal stabilisation; K562 lysate, 10 uM; active = over 0.2 and 3.5 SD of the protein, either way, in both replicates (recomputed)
ibrutinib = compound: C=CC(=O)N1CCC[C@@H](n2nc(-c3ccc(Oc4ccccc4)cc3)c3c(N)ncnc32)C1 [ibrutinib]
In short: (§1)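 K562 pellets were dounce-homogenised in PBS pH 7.4 with 1 mM MgCl2, and the crude extract at 1 mg/mL protein was treated with 10 μM compound for 30 min. Aliquots were heated for 3 min across 48°C-58°C, pooled, and brought to 0.5% NP-40 at 4°C; soluble protein was the supernatant after 21,000xg for 90 min. Soluble protein was quantified by TMTpro 16plex LC-MS/MS with channel sums equalised, and reported as log2 fold change in thermal stability against DMSO controls, with values from duplicates.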

By UniProt entry, the sequences of proteins in these tests, tags left out. Where a name states a change or a piece, a line headed by the entry shows the natural chain unless it says otherwise.
UniProt P30533, whole entry, looked up: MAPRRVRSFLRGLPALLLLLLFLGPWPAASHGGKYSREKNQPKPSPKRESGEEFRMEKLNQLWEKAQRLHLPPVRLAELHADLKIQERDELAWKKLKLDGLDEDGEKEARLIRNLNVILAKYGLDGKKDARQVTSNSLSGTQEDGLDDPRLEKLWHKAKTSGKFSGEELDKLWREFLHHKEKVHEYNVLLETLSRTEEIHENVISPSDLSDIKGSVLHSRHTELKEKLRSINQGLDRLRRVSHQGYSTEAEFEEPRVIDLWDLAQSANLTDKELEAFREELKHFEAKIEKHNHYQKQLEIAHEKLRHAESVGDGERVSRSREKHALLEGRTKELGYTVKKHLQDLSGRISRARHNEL
UniProt Q9BX40: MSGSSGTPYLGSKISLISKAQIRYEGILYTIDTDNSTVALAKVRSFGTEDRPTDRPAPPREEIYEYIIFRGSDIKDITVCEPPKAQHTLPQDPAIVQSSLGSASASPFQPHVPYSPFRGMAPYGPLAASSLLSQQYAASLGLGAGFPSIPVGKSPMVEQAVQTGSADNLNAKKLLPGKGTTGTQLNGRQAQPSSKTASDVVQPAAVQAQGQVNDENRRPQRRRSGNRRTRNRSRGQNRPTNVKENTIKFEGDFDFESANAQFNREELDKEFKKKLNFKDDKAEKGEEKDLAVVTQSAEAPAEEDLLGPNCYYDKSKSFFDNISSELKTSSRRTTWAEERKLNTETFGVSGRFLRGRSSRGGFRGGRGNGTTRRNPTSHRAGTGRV
UniProt Q12907: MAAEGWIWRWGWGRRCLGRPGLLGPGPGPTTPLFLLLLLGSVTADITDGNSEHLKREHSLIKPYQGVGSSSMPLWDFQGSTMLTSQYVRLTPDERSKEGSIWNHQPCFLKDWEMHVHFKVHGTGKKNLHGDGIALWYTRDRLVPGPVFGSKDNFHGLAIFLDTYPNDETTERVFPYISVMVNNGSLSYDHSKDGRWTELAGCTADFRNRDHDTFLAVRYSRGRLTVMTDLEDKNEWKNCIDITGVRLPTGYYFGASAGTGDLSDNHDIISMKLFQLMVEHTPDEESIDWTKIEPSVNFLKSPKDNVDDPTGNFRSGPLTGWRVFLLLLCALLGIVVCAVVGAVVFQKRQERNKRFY
UniProt Q8N9N7: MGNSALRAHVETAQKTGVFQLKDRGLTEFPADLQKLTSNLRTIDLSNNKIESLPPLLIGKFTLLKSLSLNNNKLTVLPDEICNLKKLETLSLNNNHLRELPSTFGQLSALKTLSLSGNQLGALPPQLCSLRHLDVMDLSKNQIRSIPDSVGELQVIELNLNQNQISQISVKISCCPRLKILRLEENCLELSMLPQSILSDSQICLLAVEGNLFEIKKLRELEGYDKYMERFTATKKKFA
UniProt Q9BU23: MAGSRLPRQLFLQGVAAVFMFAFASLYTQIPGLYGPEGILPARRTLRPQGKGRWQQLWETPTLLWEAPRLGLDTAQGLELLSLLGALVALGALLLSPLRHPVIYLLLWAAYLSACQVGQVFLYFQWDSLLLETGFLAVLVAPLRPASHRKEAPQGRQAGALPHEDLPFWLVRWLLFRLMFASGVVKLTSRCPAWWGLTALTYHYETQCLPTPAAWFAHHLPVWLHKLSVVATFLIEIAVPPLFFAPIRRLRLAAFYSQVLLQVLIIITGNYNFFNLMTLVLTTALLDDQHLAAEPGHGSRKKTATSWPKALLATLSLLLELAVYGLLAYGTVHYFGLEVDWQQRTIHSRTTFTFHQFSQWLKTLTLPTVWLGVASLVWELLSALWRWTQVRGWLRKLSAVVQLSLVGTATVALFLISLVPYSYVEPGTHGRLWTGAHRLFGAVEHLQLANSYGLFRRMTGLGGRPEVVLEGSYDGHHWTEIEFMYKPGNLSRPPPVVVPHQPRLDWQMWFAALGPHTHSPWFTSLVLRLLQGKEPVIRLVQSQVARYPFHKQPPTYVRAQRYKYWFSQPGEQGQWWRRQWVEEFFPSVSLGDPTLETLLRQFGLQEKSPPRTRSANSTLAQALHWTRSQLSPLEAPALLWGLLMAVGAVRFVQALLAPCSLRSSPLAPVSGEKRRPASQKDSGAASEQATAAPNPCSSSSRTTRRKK
UniProt P53667: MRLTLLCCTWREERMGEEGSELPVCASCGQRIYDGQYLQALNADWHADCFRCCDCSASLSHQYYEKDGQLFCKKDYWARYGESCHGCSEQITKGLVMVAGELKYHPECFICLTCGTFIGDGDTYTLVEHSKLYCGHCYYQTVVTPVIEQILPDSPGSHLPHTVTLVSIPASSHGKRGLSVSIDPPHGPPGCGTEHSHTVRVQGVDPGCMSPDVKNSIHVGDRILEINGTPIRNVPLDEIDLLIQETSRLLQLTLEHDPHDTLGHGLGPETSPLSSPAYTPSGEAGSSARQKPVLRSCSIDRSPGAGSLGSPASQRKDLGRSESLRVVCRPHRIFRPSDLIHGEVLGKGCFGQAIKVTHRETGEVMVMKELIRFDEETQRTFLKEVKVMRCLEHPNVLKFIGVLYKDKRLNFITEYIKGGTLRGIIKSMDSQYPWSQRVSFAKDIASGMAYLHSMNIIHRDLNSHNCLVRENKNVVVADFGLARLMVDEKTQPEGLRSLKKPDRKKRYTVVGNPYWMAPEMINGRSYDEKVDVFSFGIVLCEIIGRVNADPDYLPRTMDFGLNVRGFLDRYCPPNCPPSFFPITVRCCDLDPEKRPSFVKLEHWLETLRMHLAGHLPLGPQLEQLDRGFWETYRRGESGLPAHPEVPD
UniProt Q15345: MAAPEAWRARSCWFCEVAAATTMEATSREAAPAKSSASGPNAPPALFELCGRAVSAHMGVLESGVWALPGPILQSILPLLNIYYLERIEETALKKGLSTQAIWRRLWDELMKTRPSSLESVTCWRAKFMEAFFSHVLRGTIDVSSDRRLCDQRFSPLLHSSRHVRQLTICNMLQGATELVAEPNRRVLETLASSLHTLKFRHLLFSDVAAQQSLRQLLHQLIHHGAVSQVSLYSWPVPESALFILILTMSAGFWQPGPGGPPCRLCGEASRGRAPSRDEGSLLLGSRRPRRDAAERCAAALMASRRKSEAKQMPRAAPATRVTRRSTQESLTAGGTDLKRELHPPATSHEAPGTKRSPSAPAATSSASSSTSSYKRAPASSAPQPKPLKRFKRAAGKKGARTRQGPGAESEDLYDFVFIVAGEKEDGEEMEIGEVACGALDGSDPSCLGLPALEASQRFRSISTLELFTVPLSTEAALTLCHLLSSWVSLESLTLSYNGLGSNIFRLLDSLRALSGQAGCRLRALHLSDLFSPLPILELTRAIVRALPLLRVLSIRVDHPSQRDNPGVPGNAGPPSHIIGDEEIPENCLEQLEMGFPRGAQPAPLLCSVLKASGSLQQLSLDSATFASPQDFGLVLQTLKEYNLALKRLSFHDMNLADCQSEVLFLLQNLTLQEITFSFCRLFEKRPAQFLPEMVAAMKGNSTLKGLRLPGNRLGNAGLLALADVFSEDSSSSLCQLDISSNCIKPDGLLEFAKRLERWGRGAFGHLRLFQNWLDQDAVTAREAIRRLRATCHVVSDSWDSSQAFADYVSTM
UniProt Q6UWP7: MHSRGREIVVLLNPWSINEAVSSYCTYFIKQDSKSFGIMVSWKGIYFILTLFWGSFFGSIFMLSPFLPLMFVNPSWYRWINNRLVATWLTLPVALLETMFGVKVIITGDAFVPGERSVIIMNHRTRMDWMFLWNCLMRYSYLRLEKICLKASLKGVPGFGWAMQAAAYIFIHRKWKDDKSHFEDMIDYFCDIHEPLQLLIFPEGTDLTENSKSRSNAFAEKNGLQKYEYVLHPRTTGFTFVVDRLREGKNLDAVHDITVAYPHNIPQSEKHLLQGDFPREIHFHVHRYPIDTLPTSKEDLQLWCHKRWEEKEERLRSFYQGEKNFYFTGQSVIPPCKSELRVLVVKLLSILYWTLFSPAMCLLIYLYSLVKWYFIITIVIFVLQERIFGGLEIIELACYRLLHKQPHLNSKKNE
UniProt Q03252: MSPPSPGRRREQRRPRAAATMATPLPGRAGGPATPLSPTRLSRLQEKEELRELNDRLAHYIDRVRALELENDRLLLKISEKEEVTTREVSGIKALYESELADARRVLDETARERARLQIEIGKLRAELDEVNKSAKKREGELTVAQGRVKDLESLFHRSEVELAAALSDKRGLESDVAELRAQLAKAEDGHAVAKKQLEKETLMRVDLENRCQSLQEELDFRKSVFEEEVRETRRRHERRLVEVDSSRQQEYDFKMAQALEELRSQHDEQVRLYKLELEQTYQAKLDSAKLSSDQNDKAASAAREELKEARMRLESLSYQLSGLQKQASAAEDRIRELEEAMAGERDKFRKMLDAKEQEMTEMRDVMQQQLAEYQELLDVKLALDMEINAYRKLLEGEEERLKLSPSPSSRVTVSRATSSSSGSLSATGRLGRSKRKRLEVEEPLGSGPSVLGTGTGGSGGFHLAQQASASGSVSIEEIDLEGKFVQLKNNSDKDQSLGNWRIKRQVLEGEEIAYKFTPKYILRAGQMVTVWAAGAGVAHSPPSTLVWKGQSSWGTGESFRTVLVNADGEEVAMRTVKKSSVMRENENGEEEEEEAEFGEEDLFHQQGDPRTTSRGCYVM
UniProt O43766: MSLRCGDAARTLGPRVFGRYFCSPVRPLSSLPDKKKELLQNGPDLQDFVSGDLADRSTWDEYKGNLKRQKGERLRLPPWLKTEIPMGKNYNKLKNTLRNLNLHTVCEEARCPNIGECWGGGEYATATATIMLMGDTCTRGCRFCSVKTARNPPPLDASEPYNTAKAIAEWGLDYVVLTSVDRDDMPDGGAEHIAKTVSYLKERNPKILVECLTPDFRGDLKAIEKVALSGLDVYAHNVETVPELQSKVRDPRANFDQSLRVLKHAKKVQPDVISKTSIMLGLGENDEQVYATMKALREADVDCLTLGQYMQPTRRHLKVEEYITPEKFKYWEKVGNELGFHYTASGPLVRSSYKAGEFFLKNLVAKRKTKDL
UniProt Q14114: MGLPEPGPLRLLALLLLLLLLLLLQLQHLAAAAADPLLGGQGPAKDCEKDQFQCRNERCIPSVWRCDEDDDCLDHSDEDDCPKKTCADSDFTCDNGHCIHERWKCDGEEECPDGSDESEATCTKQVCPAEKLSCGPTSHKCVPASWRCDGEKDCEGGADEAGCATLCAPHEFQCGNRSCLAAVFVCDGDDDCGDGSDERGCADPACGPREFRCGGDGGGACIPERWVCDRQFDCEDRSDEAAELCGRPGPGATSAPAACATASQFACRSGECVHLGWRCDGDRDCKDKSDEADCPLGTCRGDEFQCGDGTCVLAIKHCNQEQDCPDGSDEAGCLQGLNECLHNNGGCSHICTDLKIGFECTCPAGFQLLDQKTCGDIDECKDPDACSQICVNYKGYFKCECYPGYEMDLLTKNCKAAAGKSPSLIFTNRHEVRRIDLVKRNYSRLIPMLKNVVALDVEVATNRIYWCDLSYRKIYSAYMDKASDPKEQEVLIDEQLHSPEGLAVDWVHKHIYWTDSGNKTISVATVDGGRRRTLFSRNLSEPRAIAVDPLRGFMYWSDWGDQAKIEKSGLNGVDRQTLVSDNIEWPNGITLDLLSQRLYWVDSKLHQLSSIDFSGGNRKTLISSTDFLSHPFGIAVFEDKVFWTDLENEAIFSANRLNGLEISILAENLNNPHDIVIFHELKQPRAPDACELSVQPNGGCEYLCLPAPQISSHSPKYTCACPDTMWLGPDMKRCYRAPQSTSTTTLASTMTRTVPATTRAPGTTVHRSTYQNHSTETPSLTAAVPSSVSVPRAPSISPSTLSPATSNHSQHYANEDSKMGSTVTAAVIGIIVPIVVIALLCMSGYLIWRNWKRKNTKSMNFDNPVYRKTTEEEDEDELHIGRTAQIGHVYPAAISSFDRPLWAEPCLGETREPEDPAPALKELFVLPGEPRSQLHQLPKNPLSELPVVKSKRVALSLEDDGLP
UniProt Q96FE5: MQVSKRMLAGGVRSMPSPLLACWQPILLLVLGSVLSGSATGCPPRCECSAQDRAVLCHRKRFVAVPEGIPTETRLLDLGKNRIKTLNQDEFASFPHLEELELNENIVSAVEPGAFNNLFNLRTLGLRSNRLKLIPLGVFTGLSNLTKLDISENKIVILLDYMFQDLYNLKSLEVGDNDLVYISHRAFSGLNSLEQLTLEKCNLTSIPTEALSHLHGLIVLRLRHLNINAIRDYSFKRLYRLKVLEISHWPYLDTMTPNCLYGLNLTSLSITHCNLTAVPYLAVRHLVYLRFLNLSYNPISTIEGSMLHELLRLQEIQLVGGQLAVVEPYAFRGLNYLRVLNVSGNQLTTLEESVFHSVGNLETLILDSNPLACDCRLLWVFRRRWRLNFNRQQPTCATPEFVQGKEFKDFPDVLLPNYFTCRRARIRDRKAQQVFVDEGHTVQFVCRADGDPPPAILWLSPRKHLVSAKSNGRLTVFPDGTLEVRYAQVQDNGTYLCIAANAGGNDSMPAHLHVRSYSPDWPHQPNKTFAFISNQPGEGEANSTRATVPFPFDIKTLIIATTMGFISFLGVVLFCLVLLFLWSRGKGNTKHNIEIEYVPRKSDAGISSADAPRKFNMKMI

[1] = compound: CC(=O)c1cnc2ccc(-c3cc(Cl)c(O)c(Cl)c3)nc2c1N[C@H]1CC[C@H](CN(C)C)CC1
In short: as §1

ralimetinib = compound: CC(C)(C)Cn1c(N)nc2ccc(-c3[nH]c(C(C)(C)C)nc3-c3ccc(F)cc3)nc21 [ralimetinib]
In short: as §1

[2] = compound: CC(C)(O)CC(=O)NCCn1ccc2ncnc(Nc3ccc(Oc4cccc(C(F)(F)F)c4)c(Cl)c3)c21
In short: as §1

[3] = compound: CC(C)C1=C2N=C(C=C(N2N=C1)NCC3=CC=CC=C3)NCCCCCCN
In short: as §1

[4] = compound: CC1=C(C(CC(=O)N1)C2=CC=C(C=C2)C(F)(F)F)C(=O)NC3=C(C=C4C(=C3)C=NN4)F
In short: as §1

[5] = compound: CC1=C(C2=C(C=C1)C(=O)C3=CC=CC=C3N2CCCN)C
In short: as §1

[6] = compound: CC1=C(C=C(C=C1)NC(=O)C2=CC(=CC=C2)C(C)(C)C#N)NC3=CC4=C(C=C3)N=CN(C4=O)C
In short: as §1

[7] = compound: CC1=C(C=C(C=C1)NC(=O)C2=CC(=CC=C2)N(C)C)NC(=O)C3=CC=C(C=C3)O
In short: as §1

[8] = compound: CC1=CC=C(C=C1)SC2=C3C=C(SC3=CN=C2)C(=O)N
In short: as §1

vemurafenib = compound: CCCS(=O)(=O)Nc1ccc(F)c(C(=O)c2c[nH]c3ncc(-c4ccc(Cl)cc4)cc23)c1F [vemurafenib]
In short: as §1

[9] = compound: CCCS(=O)(=O)Nc1ccc(F)c(C(=O)c2c[nH]c3ncc(Cl)cc23)c1F
In short: as §1

barasertib = compound: CCN(CCCOc1ccc2c(Nc3cc(CC(=O)Nc4cccc(F)c4)[nH]n3)ncnc2c1)CCOP(=O)(O)O [barasertib]
In short: as §1

[10] = compound: CC[C@@H]1C(=O)N(C)c2cnc(Nc3ccc(C(=O)NC4CCN(C)CC4)cc3OC)nc2N1C1CCCC1
In short: as §1

volasertib = compound: CC[C@@H]1C(=O)N(C)c2cnc(Nc3ccc(C(=O)N[C@H]4CC[C@H](N5CCN(CC6CC6)CC5)CC4)cc3OC)nc2N1C(C)C [volasertib]
In short: as §1

[11] = compound: CCn1c(C(=O)N(C2CC2)C2CC2)cc2c3c(ncn3C)c(Nc3cc(C)n(C)n3)nc21
In short: as §1

[12] = compound: CCn1cc(-c2ccnc3[nH]c(-c4cccc(CN(C)C)c4)cc23)c(-c2ccc(NC(=O)N(C)C)cc2)n1
In short: as §1

[13] = compound: CN1CCC(CNc2ccc3ncc(-c4cccc(OC(F)(F)F)c4)n3n2)CC1
In short: as §1

saracatinib = compound: CN1CCN(CCOc2cc(OC3CCOCC3)c3c(Nc4c(Cl)ccc5c4OCO5)ncnc3c2)CC1 [saracatinib]
In short: as §1

sotrastaurin = compound: CN1CCN(c2nc(C3=C(c4c[nH]c5ccccc45)C(=O)NC3=O)c3ccccc3n2)CC1 [sotrastaurin]
In short: as §1

Measured: log2 fold change

LRPAP1 (UniProt P30533)
inactive: ibrutinib -0.003 | [1] -0.003 | ralimetinib -0.056 | [2] -0.025 | [3] 0.004 | [4] 0.006 | [5] 0 | [6] -0.028 | [7] -0.012 | [8] -0.035 | vemurafenib 0.053 | [9] -0.005 | barasertib -0.051 | [10] -0.038 | volasertib -0.006 | [11] -0.011 | [12] 0.058 | [13] -0.022 | saracatinib 0.026 | sotrastaurin 0.031

LEG1 (UniProt Q6P5S2)
inactive: ibrutinib -0.081 | [1] -0.048 | ralimetinib 0.049 | [2] 0.06 | [3] -0.129 | [4] 0.031 | [5] 0.1 | [6] 0.124 | [7] -0.045 | [8] -0.004 | [9] -0.049 | barasertib 0 | [10] -0.084 | volasertib -0.013 | [11] 0.101 | saracatinib -0.093 | sotrastaurin 0.077

LSM14B (UniProt Q9BX40)
inactive: ibrutinib -0.139 | [1] 0.029 | ralimetinib -0.112 | [2] -0.033 | [3] 0.033 | [4] 0.013 | [6] 0.09 | [7] -0.034 | [8] 0.008 | [9] -0.001 | barasertib -0.12 | volasertib 0.037 | [11] -0.033 | sotrastaurin -0.131

LMAN2 (UniProt Q12907)
inactive: ibrutinib -0.05 | [1] 0.008 | ralimetinib -0.025 | [2] 0.012 | [3] 0.003 | [4] 0.016 | [5] -0.003 | [6] 0.034 | [7] -0.032 | [8] 0.007 | vemurafenib -0.017 | [9] -0.013 | barasertib 0.011 | [10] 0.053 | volasertib 0.002 | [11] -0.016 | [12] -0.169 | [13] 0.054 | saracatinib -0.036 | sotrastaurin 0.002

LRRC57 (UniProt Q8N9N7)
inactive: ibrutinib 0.009 | [1] -0.024 | ralimetinib -0.004 | [2] -0.007 | [3] -0.009 | [4] -0.013 | [5] -0.005 | [6] 0.016 | [7] -0.033 | [8] -0.05 | vemurafenib -0.016 | [9] -0.076 | barasertib 0.002 | [10] 0.096 | volasertib 0.062 | [11] 0.007 | [12] -0.106 | [13] 0.07 | saracatinib -0.02 | sotrastaurin 0.014

Looked up one by one from the entries so far (2):
LMAN2 (UniProt Q12907)
inactive: ibrutinib -0.05 | [1] 0.008 | ralimetinib -0.025 | [2] 0.012 | [3] 0.003 | [4] 0.016 | [5] -0.003 | [6] 0.034 | [7] -0.032 | [8] 0.007 | vemurafenib -0.017 | [9] -0.013 | barasertib 0.011 | [10] 0.053 | volasertib 0.002 | [11] -0.016 | [12] -0.169 | [13] 0.054 | saracatinib -0.036 | sotrastaurin 0.002

LSM14B (UniProt Q9BX40)
inactive: ibrutinib -0.139 | [1] 0.029 | ralimetinib -0.112 | [2] -0.033 | [3] 0.033 | [4] 0.013 | [6] 0.09 | [7] -0.034 | [8] 0.008 | [9] -0.001 | barasertib -0.12 | volasertib 0.037 | [11] -0.033 | sotrastaurin -0.131

(cont.)

LRRC47 (UniProt Q8N1G4)
inactive: ibrutinib -0.014 | [1] -0.009 | ralimetinib -0.005 | [2] -0.009 | [3] 0 | [4] -0.028 | [5] 0.012 | [6] 0.012 | [7] -0.005 | [8] 0 | vemurafenib -0.014 | [9] -0.001 | barasertib -0.009 | [10] -0.012 | volasertib 0.011 | [11] -0.002 | [12] -0.055 | [13] 0.049 | saracatinib 0.005 | sotrastaurin -0.024

LRP6 (UniProt O75581)
inactive: ibrutinib -0.077 | ralimetinib -0.112 | [2] -0.055 | [3] -0.01 | [5] 0.005 | [6] -0.051 | [7] 0.01 | barasertib -0.066 | [10] -0.085 | [11] -0.077 | saracatinib -0.055 | sotrastaurin 0.039

LMF2 (UniProt Q9BU23)
inactive: ibrutinib -0.062 | [3] 0.061 | [4] 0.064 | [5] -0.059 | [6] -0.005 | vemurafenib -0.039 | barasertib 0.078 | [10] -0.083 | [12] -0.196 | [13] 0.133 | saracatinib 0.046 | sotrastaurin -0.017

LIPT2 (UniProt A6NK58)
inactive: ibrutinib -0.242 | [1] 0.132 | [8] -0.113 | [9] 0.031 | barasertib 0.129 | [10] -0.057 | volasertib -0.054

LIMK1 (UniProt P53667)
inactive: [1] -0.04 | ralimetinib -0.125 | [2] -0.161 | [4] -0.067 | [5] 0.026 | [6] -0.085 | [7] 0.059 | [8] -0.148 | vemurafenib 0.234 | [9] 0.179 | barasertib 0.007 | [10] -0.195 | volasertib -0.215 | [11] 0.108 | [12] -0.104 | [13] -0.028 | saracatinib -0.022 | sotrastaurin -0.15
active: ibrutinib 0.546

LRRC41 (UniProt Q15345)
inactive: ibrutinib 0.079 | [1] -0.042 | ralimetinib -0.016 | [2] -0.08 | [3] 0.028 | [4] 0.075 | [5] -0.027 | [6] -0.041 | [7] -0.012 | [8] -0.2 | vemurafenib 0.04 | [9] 0.176 | barasertib -0.033 | [10] -0.08 | volasertib 0.115 | [11] -0.036 | saracatinib 0.027 | sotrastaurin 0.105

LCLAT1 (UniProt Q6UWP7)
inactive: ibrutinib -0.105 | [1] -0.034 | ralimetinib 0.013 | [2] -0.012 | [3] 0.002 | [4] 0.016 | [5] -0.024 | [6] 0.075 | [7] 0.024 | [8] -0.049 | vemurafenib -0.019 | [9] 0.017 | barasertib 0.042 | [10] 0.035 | volasertib -0.003 | [11] -0.041 | [12] -0.019 | [13] 0.043 | saracatinib 0.031 | sotrastaurin -0.01

LMNB2 (UniProt Q03252)
inactive: ibrutinib 0.043 | [1] -0.084 | ralimetinib 0.006 | [2] -0.007 | [3] -0.043 | [4] 0.08 | [5] -0.044 | [6] 0.017 | [7] 0.005 | [8] -0.003 | vemurafenib -0.014 | [9] 0.048 | barasertib 0.007 | [10] 0.015 | volasertib 0.008 | [11] 0.039 | [12] 0.049 | [13] -0.016 | saracatinib -0.008 | sotrastaurin 0.004

LIAS (UniProt O43766)
inactive: ibrutinib 0.051 | [1] 0.047 | ralimetinib -0.028 | [2] -0.047 | [3] -0.063 | [4] -0.003 | [5] -0.025 | [6] -0.006 | [7] -0.018 | [8] 0.022 | vemurafenib 0.001 | [9] 0.027 | barasertib -0.027 | [10] -0.02 | volasertib 0.014 | [11] -0.035 | [12] -0.033 | [13] 0.072 | saracatinib -0.009 | sotrastaurin -0.021

LRP10 (UniProt Q7Z4F1)
inactive: ibrutinib 0.029 | ralimetinib -0.007 | [2] 0.083 | [3] -0.208 | [5] -0.074 | [7] -0.089 | barasertib 0.233 | [10] 0.161 | [11] -0.017 | [12] 0.05 | [13] -0.11 | saracatinib 0.101

LRP8 (UniProt Q14114)
inactive: ibrutinib 0.233 | [1] 0.061 | ralimetinib 0.032 | [2] -0.002 | [6] 0.082 | [7] -0.013 | [8] -0.007 | vemurafenib 0.135 | [9] 0.175 | barasertib 0.099 | [10] 0.107 | volasertib -0.021 | [11] 0.012 | [12] -0.056 | [13] 0.006 | sotrastaurin 0.042

LINGO1 (UniProt Q96FE5)
inactive: ibrutinib -0.011 | [1] -0.037 | ralimetinib -0.008 | [2] -0.07 | [3] -0.046 | [5] -0.001 | [7] -0.037 | [8] -0.001 | vemurafenib 0.002 | [9] -0.126 | barasertib 0.014 | [10] -0.121 | volasertib -0.023 | [11] -0.007 | [12] -0.061 | [13] -0.003 | saracatinib 0.041
